Tested on: efflux and porin genes (acrAB-tolC, emrAB-tolC, ompC, ompF) in E. coli K12 cells
Experiment: Gene expression analysis by real-time qPCR
Type: cell-based, Escherichia coli
Settings: E. coli K12 cells treated with ¼ MIC

O=C(O)c1cn(C2CC2)c2cc(N3CCNCC3)c(F)cc2c1=O [Ciprofloxacin, reference compound] was tested, and the “gene expression of efflux pumps and porins” value was “acrAB-tolC and emr AB-tolC activation and ompC and ompF down-regulation”.

Reference: patent US11434227B2, “Broad spectrum antibacterial activity of novel bisbenzimidazoles targeting topoisomerase IA and the synergistic composition of bisbenzimidazole with efflux pump inhibitors against pathogenic bacteria” (Jawaharlal Nehru University (JNU), priority 2016, dated 2022)
